Source: paper PMC6429222, “The Oligomeric State of the Plasma Membrane H^+-ATPase from Kluyveromyces lactis” (Molecules, 2019)
No constants are given. Whether binding was seen depends on the method and setting. Some entries that bind do so weakly or less than the wild type. Tags and fused reporters may be left off the sequences shown.

How the values were obtained:
[1] = molecular target: plasma membrane H^+-ATPase from Kluyveromyces lactis (Kluyveromyces lactis) (UniProt P49380); experiment: light scattering; purified enzyme suspended in aqueous media; results not shown; both purified
[2] = molecular target: plasma membrane H^+-ATPase from Kluyveromyces lactis (Kluyveromyces lactis) (UniProt P49380); experiment: native gel or EMSA; BN-PAGE of SEC Peak 1 fractions with decreased trehalose concentration in the loading buffer; result not shown; both purified
[3] = molecular target: plasma membrane H^+-ATPase from Kluyveromyces lactis (Kluyveromyces lactis) (UniProt P49380); experiment: SEC; Superose 6 column (12 mL), 9, 6 and 3 mg of purified H^+-ATPase loaded; 0.25 mL/min; 20 mM PIPES pH 6.5, 100 mM NaCl, 1 mM MgCl2, 0.05% DDM, 10% glycerol; both purified

Measured: binding

B1: plasma membrane H^+-ATPase from Kluyveromyces lactis (enzyme, UniProt P49380 1-899, looked up)
chain: MSAATEPTKEKPVNNQDSDDEDEDIDQLIEDLQSHHGLDDESEDDEHVAAGSARPVPEELLQTDPSYGLTSDEVTKRRKKYGLNQMSEETENLFVKFLMFFIGPIQFVMEAAAILAAGLEDWVDFGVICGLLFLNAAVGFIQEYQAGSIVDELKKTLANSAVVIRDGNLVEVPSNEVVPGDILQLEDGVVIPADGRLVTEDCFIQIDQSAITGESLAVDKRFGDSTFSSSTVKRGEAFMIVTATGDSTFVGRAAALVNKAAAGSGHFTEVLNGIGTILLILVIVTLLLVWVASFYRTNKIVRILRYTLAITIVGVPVGLPAVVTTTMAVGAAYLAKKQAIVQKLSAIESLAGVEILCSDKTGTLTKNKLSLHEPYTVEGVDPDDLMLTACLAASRKKKGLDAIDKAFLKSLISYPRAKAALTKYKLLEFHPFDPVSKKVTAIVESPEGERIICVKGAPLFVLKTVEEEHPIPEDVRENYENKVAELASRGFRALGVARKRGEGHWEILGVMPCMDPPRDDTAQTVNEARHLGLRVKMLTGDAVGIAKETCRQLGLGTNIYNAERLGLGGGGDMPGSELADFVENADGFAEVFPQHKYNVVEILQQRGYLVAMTGDGVNDAPSLKKADTGIAVEGATDAARSAADIVFLAPGLSAIIDALKTSRQIFHRMYSYVVYRIALSLHLEIFLGLWIAILNRSLNIDLVVFIAIFADVATLAIAYDNAPYSPKPVKWNLRRLWGMSVILGIILAIGTWITLTTMFVPKGGIIQNFGSIDGVLFLQISLTENWLIFITRAAGPFWSSIPSWQLSGAVLIVDIIATMFCLFGWWSQNWNDIVTVVRVWIFSFGVFCVMGGAYYMMSESEAFDRFMNGKSRRDKPSGRSVEDFLMAMQRVSTQHEKEN
notes: plasma membrane H^+-ATPase (Pma1) of Kluyveromyces lactis, endogenous enzyme; monomer band of ~100 kDa on SDS-PAGE; also called Pma1; H^+-ATPase hexamer; source: also in isolated plasma membranes treated with DDM
binds: [1] | [2] | [3]
